# According to the supplement of paper PMC10338343:
# ± gives the standard deviation. The entries are a selection whose mix differs from that of the whole data set. Many of these values have a large error.
# Tested on: MIWI (PIWIL1) piRISC loaded with L1MC piRNA (30 nt)
# Assay: pre-steady-state target cleavage rate (min^-1); MIWI and MILI are mouse PIWI proteins and EfPiwi is from a freshwater sponge; tags in brackets are library labels; higher = faster piRNA-guided slicing of the target
# Settings: guide: L1MC piRNA 5'p-UAACUAAAUACUAUGCAAGCUGUAGGUCCU; auxiliary factor: 500 nM mouse GTSF1
# In short: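 A burst-and-steady-state fit was used to obtain the pre-steady-state cleavage rate. The input data were sequencing reads of uncleaved targets, normalised to depth and to weakly complementary targets, from a […] transcribed, DNA-blocked target RNA library mixed with 1 nM active affinity-purified piRISC holding one synthetic guide, with or without 500 nM GTSF1 partner protein, in HEPES–potassium acetate buffer at 33 °C for 0–8 or 0–960 min. Three trials were pooled and k3 was capped at 0.0001 min^-1.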
# 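Also: 1 nM active piRISC with 0.1 nM target library at 33 °C single turnover.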
row,Sequence,pre-steady-state target cleavage rate
1,UGGACCCUACAGCUUGCAUAGUAUUUAGUUA,1.42 ± 0.074
2,UCGACCUACGCUUGCAUAGUAUUUAGUUA,1.45 ± 0.052
3,UCCUGGAUGUCGAACGUAUGUAUUUAAUUA,0.000227 ± 0.022
4,UCCUGGAUGUGCUUGCUUUGUAUUUAGUUA,0.00305 ± 0.0034
5,UGGACCUACAGCUUGCAUAGUAUUUAGUUU [g2:g29:cont:t1U],1.62 ± 0.082

# Same assay, conditions: guide: L1MC piRNA 5'p-UAACUAAAUACUAUGCAAGCUGUAGGUCCU; auxiliary factor: none (no GTSF1)
row,Sequence,pre-steady-state target cleavage rate
1,UGGACCUACAGCUACCAUAGUAUUUUCAAA,0.000147 ± 0.015
2,UCCUGGAUCAGCUUGCAUACAAUUUUCAAA,0.000255 ± 0.013
3,UCCACCUACAGCUUCCAUAGUAUUUAGUUA,0.00286 ± 0.003
4,UCGACCUACAGCUUCGUUAGUAUUUAGUAA,0.00065 ± 0.0082
5,UCCUGGAUCAGCUUGCAUUCUAUUUACAAA,0.000263 ± 0.015
6,UCCACCUACAGCUACCAUAGUAUUUACAAA,0.000553 ± 0.014
7,UGGACCUACAGCUUGCAUAGUAAUUAGAAA,0.00241 ± 0.0035
8,UCCUGGAUGUCGAACGAUAGUAAAUAGUUA,0.000235 ± 0.016
9,UCCACCUACAGCUUCCAUAGUAUAUAGUUA,0.000896 ± 0.0091
10,UCCACCUACAGCUUGCAUAGUAAAUAGAAA,0.00119 ± 0.0056
11,UCGACCUACAGCUUGCAUAGUAUAUACAAA,0.00103 ± 0.0056
12,AGGACCUACAGCUUGCAUUCAAUUUAGUAA,0.00118 ± 0.0072
13,AGGACCUACAGCUUGCAAUCUAUUUUCAAA,0.000558 ± 0.012
14,UCCACCUACAGCUUGGUAAGUAUUUACAAA,0.000229 ± 0.012
15,UCGACCUACAGCUUGCAUUCAUAAAUCAAA [g13:g28:cont:t1A],0.000438 ± 0.013
16,UCCACCUACAGCUUCGAUAGUAUUUAGUUA,0.0021 ± 0.0023
17,AGGACCUACAGCUUGCAUAGAUAUUUCAAA,0.000794 ± 0.011
18,UCCACCUACAGCUUGCAUAGAUAUUAGUAA,0.00071 ± 0.0078

row,Sequence,pre-steady-state target cleavage rate
1,UCCACCUACAGCUUGCAUAGUAUAUUCAAA,0.000723 ± 0.0096
2,UCCUGGAUGUCCAUGGAUAGUAUUUAGUUA,0.000768 ± 0.0081
3,UGGACCUACUCGUUGCAUAGUAUUUAGAAA,0.00216 ± 0.0024
4,UCCUGCUACUCCUUGCAUAGUAUUUAGAAA,0.00232 ± 0.0031
5,UGGACCUACAGGAAGCAUAGUAUUUAGAAA,0.00129 ± 0.0054
6,UGGACCUACAGCUUGGUAAGUAUUUAGUUA,0.000569 ± 0.0049
7,UGGACCUAGUCCUUGCAUAGUAUUUACAAA,0.00159 ± 0.0019
8,UGGACCUACUCCUUGCAUAGUAUUUUCAAA,0.00222 ± 0.0033
9,UCCACCUACAGCUUGCAUAGUUUUAGUUA,0.000951 ± 0.0071
10,UCGACCUACAGCUUGCAUAGUAUUAUCUAA,0.00227 ± 0.0038
11,UCGACCUACAGCAAGCAUAGUAUUUUCAAA,0.000323 ± 0.0082
12,UCGACCUACAGCAAGCAUAGUAUUUAGAAA,0.00128 ± 0.0046
13,UCCACCUACAGCUUCCAAAGUAUUUAGUUA,0.00128 ± 0.002
14,UGGACCUACAGCUUGCAUAGUAAAAAGAAA,0.000665 ± 0.0073
15,AGGACCUACAGCUUGCAUAGUUAAUAGAAA,0.00124 ± 0.0062
16,UCGACCUACAGCUUCGAUAGUAUUUUCAAA,0.000235 ± 0.015
17,UCGACCUACAGCUACGAUAGUAUUUAGUUA,0.000994 ± 0.0071

# Some of the entries so far, bar-delimited.
row | Sequence | pre-steady-state target cleavage rate
3 | UGGACCUACUCGUUGCAUAGUAUUUAGAAA | 0.00216 ± 0.0024
4 | UCCUGCUACUCCUUGCAUAGUAUUUAGAAA | 0.00232 ± 0.0031
5 | UGGACCUACAGGAAGCAUAGUAUUUAGAAA | 0.00129 ± 0.0054
